Source: the supplement of paper PMC10849652
The list shows a part of the results.

Chains of the proteins cited; added tags and fusions are not shown. Lines headed by an entry give the natural chain unless they say otherwise; changes in a name come on top.
UniProt Q96GU1: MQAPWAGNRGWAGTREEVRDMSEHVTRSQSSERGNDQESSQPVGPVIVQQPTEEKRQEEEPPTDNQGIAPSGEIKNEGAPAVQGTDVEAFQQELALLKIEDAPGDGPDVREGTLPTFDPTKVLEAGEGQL
UniProt Q7L3T8: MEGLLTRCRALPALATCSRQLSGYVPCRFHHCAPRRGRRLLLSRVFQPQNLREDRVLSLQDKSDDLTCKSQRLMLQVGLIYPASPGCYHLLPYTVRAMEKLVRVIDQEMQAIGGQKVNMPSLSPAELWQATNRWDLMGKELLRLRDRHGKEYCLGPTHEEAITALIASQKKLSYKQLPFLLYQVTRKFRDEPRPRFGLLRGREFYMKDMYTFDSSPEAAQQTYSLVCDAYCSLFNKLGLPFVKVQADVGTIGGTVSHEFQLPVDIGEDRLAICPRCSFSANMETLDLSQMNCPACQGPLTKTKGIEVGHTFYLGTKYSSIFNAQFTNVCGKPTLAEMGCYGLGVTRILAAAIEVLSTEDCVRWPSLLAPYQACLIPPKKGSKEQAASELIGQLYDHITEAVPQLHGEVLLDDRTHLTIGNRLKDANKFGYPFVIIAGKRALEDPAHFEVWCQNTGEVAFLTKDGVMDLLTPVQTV
UniProt P51003: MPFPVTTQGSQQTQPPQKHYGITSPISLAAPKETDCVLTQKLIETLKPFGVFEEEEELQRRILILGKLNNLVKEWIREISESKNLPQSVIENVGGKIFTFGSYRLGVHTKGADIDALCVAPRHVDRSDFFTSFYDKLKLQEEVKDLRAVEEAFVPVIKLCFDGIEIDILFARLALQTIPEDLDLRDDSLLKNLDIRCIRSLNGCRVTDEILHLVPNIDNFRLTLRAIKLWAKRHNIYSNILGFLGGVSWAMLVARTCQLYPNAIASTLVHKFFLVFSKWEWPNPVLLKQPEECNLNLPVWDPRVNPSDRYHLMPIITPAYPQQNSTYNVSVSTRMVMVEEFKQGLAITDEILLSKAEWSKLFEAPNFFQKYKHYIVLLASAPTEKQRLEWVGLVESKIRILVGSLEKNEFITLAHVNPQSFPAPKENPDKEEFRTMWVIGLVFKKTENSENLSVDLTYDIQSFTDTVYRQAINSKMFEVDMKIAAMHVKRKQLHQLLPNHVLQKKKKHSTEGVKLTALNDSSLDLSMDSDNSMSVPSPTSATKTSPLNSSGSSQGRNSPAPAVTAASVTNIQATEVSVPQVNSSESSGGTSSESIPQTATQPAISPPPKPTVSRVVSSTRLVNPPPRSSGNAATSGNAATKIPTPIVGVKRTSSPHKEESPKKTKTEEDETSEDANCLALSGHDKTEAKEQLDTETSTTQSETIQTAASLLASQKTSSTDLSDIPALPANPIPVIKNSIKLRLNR
UniProt P56645: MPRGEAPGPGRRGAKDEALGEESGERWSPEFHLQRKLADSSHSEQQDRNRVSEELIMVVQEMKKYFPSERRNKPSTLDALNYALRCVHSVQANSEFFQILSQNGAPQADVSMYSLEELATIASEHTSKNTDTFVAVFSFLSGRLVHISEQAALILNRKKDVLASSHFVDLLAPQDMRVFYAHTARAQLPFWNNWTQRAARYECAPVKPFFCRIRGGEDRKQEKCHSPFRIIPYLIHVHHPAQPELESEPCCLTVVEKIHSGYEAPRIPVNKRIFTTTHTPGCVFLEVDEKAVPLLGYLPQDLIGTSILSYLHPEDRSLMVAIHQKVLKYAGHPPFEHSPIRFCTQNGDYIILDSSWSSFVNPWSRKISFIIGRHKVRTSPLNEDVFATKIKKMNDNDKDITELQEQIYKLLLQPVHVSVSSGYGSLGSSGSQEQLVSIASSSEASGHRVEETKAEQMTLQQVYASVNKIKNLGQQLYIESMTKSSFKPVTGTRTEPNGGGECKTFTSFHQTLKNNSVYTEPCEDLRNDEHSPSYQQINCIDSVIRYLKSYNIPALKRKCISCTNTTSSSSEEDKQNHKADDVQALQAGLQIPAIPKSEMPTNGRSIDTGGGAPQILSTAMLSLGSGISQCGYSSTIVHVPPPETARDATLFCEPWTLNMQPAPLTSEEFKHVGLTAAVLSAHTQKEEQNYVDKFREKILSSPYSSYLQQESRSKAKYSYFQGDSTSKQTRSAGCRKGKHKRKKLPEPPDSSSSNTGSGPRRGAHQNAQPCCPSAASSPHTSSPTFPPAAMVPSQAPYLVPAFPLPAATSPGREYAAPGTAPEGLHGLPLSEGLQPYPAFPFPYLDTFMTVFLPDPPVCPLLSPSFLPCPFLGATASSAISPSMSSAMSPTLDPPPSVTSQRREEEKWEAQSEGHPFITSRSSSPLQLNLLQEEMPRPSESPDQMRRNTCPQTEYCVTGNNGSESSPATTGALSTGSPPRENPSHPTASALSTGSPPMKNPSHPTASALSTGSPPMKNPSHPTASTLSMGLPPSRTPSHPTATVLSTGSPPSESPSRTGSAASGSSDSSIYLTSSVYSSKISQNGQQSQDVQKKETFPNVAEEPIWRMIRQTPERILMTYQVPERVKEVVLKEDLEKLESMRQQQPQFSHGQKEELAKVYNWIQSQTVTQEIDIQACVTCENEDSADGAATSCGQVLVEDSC
UniProt Q15118, whole entry, looked up: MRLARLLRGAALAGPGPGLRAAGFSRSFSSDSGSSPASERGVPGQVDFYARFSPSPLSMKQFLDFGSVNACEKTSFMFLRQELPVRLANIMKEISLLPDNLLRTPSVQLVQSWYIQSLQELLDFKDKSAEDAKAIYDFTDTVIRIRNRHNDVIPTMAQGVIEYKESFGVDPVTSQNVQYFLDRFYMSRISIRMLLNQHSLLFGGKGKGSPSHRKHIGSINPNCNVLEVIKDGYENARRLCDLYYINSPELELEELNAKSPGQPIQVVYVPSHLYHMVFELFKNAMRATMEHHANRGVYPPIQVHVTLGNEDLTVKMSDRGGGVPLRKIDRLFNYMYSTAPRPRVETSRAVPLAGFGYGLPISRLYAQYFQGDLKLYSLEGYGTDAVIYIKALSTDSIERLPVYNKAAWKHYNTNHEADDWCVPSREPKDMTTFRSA
UniProt Q9NP74: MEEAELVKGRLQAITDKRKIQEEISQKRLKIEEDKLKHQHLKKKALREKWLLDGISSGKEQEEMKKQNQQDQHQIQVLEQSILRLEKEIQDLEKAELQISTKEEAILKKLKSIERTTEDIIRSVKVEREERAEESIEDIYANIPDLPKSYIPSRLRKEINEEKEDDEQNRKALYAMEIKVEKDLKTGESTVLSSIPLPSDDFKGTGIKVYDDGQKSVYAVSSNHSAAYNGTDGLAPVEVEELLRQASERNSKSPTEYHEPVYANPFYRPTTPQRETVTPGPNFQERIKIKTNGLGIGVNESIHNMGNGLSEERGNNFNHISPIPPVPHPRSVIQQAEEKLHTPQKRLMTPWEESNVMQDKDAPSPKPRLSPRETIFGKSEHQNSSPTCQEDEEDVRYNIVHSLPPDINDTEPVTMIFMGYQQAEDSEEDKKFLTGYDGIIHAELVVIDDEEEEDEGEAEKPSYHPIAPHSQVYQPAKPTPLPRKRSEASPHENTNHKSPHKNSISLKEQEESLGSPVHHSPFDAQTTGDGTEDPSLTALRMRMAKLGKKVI
UniProt Q13371: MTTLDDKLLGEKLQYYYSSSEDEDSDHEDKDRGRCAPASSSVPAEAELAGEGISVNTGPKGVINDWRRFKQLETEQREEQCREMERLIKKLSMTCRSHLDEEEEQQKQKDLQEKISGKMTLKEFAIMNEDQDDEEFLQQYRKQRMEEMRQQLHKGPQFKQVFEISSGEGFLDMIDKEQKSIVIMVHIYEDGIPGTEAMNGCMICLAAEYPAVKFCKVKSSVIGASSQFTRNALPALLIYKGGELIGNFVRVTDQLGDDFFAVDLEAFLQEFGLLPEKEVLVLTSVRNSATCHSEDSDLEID
UniProt P08559, whole entry, looked up: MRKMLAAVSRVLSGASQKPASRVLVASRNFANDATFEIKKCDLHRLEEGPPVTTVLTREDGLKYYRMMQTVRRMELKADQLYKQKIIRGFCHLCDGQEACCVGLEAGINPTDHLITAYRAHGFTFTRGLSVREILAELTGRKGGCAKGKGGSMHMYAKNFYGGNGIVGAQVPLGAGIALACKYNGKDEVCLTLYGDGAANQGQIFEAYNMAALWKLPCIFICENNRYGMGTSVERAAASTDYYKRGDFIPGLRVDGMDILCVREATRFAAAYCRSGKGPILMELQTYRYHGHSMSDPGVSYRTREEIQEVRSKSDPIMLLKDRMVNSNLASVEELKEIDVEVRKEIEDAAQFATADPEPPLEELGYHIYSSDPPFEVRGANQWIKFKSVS
UniProt Q9H2J4: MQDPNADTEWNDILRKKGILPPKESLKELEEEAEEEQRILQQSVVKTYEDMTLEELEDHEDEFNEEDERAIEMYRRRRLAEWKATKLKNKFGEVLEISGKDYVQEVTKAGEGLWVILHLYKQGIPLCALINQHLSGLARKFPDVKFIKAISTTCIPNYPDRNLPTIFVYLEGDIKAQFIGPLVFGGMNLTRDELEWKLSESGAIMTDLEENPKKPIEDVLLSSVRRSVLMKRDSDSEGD
UniProt Q8TE04: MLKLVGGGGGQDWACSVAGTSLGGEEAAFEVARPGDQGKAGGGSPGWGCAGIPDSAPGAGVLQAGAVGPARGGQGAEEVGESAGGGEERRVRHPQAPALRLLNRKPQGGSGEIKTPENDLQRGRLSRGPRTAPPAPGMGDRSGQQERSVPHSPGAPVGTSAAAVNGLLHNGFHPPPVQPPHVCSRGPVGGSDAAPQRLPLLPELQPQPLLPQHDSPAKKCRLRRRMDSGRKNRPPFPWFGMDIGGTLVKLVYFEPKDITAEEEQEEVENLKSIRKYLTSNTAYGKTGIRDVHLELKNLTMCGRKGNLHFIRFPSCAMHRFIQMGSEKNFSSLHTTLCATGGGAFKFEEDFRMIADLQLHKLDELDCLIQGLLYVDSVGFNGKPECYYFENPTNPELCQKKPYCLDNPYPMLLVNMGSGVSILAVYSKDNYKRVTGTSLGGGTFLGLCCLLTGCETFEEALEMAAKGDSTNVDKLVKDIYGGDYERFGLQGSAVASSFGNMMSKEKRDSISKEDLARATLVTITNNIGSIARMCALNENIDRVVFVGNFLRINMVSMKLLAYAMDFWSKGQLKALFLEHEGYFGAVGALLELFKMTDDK
UniProt Q15084: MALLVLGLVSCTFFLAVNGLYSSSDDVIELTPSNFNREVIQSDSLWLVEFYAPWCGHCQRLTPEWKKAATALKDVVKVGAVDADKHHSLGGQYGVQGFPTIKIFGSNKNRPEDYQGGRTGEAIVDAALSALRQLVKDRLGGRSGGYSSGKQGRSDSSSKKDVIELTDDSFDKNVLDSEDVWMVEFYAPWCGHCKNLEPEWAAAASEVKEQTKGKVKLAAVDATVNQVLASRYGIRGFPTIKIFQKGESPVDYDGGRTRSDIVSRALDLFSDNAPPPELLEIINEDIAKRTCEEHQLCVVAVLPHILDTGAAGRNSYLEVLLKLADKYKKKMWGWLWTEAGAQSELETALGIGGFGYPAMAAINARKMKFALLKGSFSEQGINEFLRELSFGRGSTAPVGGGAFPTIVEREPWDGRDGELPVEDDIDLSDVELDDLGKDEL
UniProt P30086: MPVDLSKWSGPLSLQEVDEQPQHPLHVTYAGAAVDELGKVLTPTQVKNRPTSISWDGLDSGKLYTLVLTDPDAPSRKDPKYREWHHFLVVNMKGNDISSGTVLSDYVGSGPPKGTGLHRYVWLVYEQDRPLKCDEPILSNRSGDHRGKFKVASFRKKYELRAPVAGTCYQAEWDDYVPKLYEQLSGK
UniProt Q8NBP7, whole entry, looked up: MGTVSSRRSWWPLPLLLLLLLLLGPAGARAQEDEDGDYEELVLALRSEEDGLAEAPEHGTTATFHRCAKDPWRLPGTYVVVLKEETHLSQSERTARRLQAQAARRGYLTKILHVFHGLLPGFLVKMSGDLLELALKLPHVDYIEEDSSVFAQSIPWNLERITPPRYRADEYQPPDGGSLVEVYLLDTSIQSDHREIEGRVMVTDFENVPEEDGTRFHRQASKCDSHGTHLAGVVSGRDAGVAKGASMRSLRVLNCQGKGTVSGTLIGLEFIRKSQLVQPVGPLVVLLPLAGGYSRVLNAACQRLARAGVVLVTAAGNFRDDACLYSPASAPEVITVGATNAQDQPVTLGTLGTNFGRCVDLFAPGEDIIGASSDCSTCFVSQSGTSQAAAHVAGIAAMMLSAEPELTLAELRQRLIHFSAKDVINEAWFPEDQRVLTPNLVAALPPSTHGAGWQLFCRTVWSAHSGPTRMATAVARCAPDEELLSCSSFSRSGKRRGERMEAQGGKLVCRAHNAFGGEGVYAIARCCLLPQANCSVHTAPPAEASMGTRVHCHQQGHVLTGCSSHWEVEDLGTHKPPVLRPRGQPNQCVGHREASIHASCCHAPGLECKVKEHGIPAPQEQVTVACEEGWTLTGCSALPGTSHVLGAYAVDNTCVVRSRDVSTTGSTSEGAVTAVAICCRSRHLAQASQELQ
UniProt Q8WW12: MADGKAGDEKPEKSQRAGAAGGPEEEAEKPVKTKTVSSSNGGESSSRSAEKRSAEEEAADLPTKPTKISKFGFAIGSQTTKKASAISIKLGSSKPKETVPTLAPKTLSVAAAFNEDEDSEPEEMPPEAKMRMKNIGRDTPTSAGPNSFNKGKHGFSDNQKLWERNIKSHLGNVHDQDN

Assays:
Test in all cases: log2 fold change, soluble protein after heating vs DMSO (PISA); higher = thermal stabilisation; K562 cells, 10 uM, 30 min; active = over 0.2 and 3.5 SD of the protein, either way, in both replicates (recomputed)
[1] = compound: NC(=O)Nc1cc(-c2cccc(F)c2)sc1C(=O)N[C@H]1CCCNC1
In short: (§1)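 K562 cells (2×10^6 cells/mL) were treated with 10 μM compound for 30 min, and aliquots were heated for 3 min over 48°C-58°C. Pooled aliquots were extracted in PBS with 0.5% NP-40 at 4°C, and the supernatant after 21,000xg for 90 min was measured by TMTpro 16plex LC-MS/MS with channel sums equalised. Reported thermal stability, relative to control samples and from duplicates, is a log2 fold change.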

[2] = compound: NC(=O)c1cnc(N[C@@H]2CCCC[C@@H]2N)nc1Nc1cccc(-n2nccn2)c1
In short: as §1

[3] = compound: NC1(c2ccc(-c3nc4ccn5c(=O)[nH]nc5c4cc3-c3ccccc3)cc2)CCC1
In short: as §1

[4] = compound: NCC(=O)Nc1ccc(-n2nc(C(F)(F)F)cc2-c2ccc3c(ccc4ccccc43)c2)cc1
In short: as §1

entinostat = compound: Nc1ccccc1NC(=O)c1ccc(CNC(=O)OCc2cccnc2)cc1 [entinostat]
In short: as §1

vorinostat = compound: O=C(CCCCCCC(=O)Nc1ccccc1)NO [vorinostat]
In short: as §1

citarinostat = compound: O=C(CCCCCCNC(=O)c1cnc(N(c2ccccc2)c2ccccc2Cl)nc1)NO [citarinostat]
In short: as §1

silmitasertib = compound: O=C(O)c1ccc2c(c1)nc(Nc1cccc(Cl)c1)c1ccncc12 [silmitasertib]
In short: as §1

[5] = compound: O=C1NC(=O)C(c2cnc3ccccn23)=C1c1cn2c3c(cc(F)cc13)CN(C(=O)N1CCCCC1)CC2
In short: as §1

[6] = compound: c1cc(OCCN2CCCCC2)cc(-c2n[nH]c3ccc(-c4nnc[nH]4)cc23)c1
In short: as §1

entospletinib = compound: c1cn2cc(-c3ccc4cn[nH]c4c3)nc(Nc3ccc(N4CCOCC4)cc3)c2n1 [entospletinib]
In short: as §1

Measured: log2 fold change

PAGE5 (UniProt Q96GU1)
inactive: [1] 0.074 | [2] 0.342 | [3] 0.045 | [4] 0.125 | entinostat 0.064 | vorinostat -0.173 | citarinostat 0.048 | silmitasertib -0.049 | [5] -0.228 | [6] -0.006 | entospletinib 0.059

PCM1 isoform 5 (UniProt Q15154)
inactive: [1] 0.056 | [2] 0.011 | [3] 0.139 | [4] 0.051 | entinostat 0.031 | vorinostat 0.034 | citarinostat 0.061 | silmitasertib 0.196 | [5] 0.092 | [6] -0.198 | entospletinib 0.026

PARS2 (UniProt Q7L3T8)
inactive: [1] 0.079 | [2] -0.034 | [3] 0.015 | [4] 0.058 | entinostat -0.025 | vorinostat -0.002 | citarinostat 0.004 | silmitasertib 0.033 | [5] 0.093 | [6] -0.037 | entospletinib 0.05

PAICS (UniProt P22234)
inactive: [1] -0.003 | [2] 0.025 | [3] 0.064 | [4] -0.008 | entinostat -0.013 | vorinostat -0.029 | citarinostat -0.085 | silmitasertib -0.044 | [5] -0.031 | [6] 0.012 | entospletinib 0.045

PAK2 (UniProt Q13177)
inactive: [1] -0.008 | [2] -0.064 | [3] 0.005 | [4] -0.004 | entinostat -0.019 | vorinostat -0.011 | citarinostat 0.025 | silmitasertib -0.001 | [5] -0.041 | [6] -0.019 | entospletinib 0.009

PANK4 (UniProt Q9NVE7)
inactive: [1] -0.015 | [2] -0.03 | [3] -0.032 | [4] -0.033 | entinostat -0.004 | vorinostat 0.002 | citarinostat 0.058 | silmitasertib 0 | [5] -0.034 | [6] -0.038 | entospletinib -0.11

PAPOLA (UniProt P51003)
inactive: [1] -0.008 | [2] -0.048 | [3] -0.073 | [4] 0 | entinostat 0.016 | vorinostat 0.021 | citarinostat 0.02 | silmitasertib -0.013 | [5] -0.038 | [6] -0.012 | entospletinib -0.039

PAGE2 (UniProt Q7Z2X7)
inactive: [1] -0.008 | [2] 0.044 | [3] 0.038 | [4] 0.063 | entinostat 0.09 | vorinostat -0.095 | citarinostat 0 | silmitasertib 0.042 | [5] -0.124 | [6] -0.021 | entospletinib 0.05

PER3 isoform 2 (UniProt P56645)
inactive: [1] 0.042 | [2] 0.007 | [3] 0.052 | [4] 0.037 | entinostat -0.037 | vorinostat -0.013 | citarinostat -0.066 | silmitasertib -0.025 | [5] -0.09 | [6] -0.059 | entospletinib 0.059

PDK1 (UniProt Q15118)
inactive: [1] 0.051 | [2] -0.04 | [3] 0.12 | [4] -0.016 | entinostat -0.04 | vorinostat -0.072 | citarinostat -0.062 | silmitasertib 0.031 | [5] -0.11 | [6] 0.025 | entospletinib 0.015

PALMD (UniProt Q9NP74)
inactive: [1] -0.169 | [2] 0.015 | [3] 0.068 | [4] 0.06 | entinostat -0.135 | vorinostat -0.021 | citarinostat 0.157 | silmitasertib 0.029 | [5] 0.019 | [6] 0.024 | entospletinib -0.019

PAFAH1B1 (UniProt P43034)
inactive: [1] -0.01 | [2] -0.02 | [3] -0.004 | [4] -0.01 | entinostat -0.006 | vorinostat -0.005 | citarinostat 0.027 | silmitasertib -0.021 | [5] -0.03 | [6] -0.023 | entospletinib -0.016

PBDC1 (UniProt Q9BVG4)
inactive: [1] -0.002 | [2] -0.022 | [3] -0.095 | [4] -0.047 | entinostat 0.031 | vorinostat 0.044 | citarinostat 0.042 | silmitasertib -0.026 | [5] -0.022 | [6] -0.086 | entospletinib -0.006

Seven neighbouring entries from above, quoted:
PAK2 (UniProt Q13177)
inactive: [1] -0.008 | [2] -0.064 | [3] 0.005 | [4] -0.004 | entinostat -0.019 | vorinostat -0.011 | citarinostat 0.025 | silmitasertib -0.001 | [5] -0.041 | [6] -0.019 | entospletinib 0.009

PANK4 (UniProt Q9NVE7)
inactive: [1] -0.015 | [2] -0.03 | [3] -0.032 | [4] -0.033 | entinostat -0.004 | vorinostat 0.002 | citarinostat 0.058 | silmitasertib 0 | [5] -0.034 | [6] -0.038 | entospletinib -0.11

PAPOLA (UniProt P51003)
inactive: [1] -0.008 | [2] -0.048 | [3] -0.073 | [4] 0 | entinostat 0.016 | vorinostat 0.021 | citarinostat 0.02 | silmitasertib -0.013 | [5] -0.038 | [6] -0.012 | entospletinib -0.039

PAGE2 (UniProt Q7Z2X7)
inactive: [1] -0.008 | [2] 0.044 | [3] 0.038 | [4] 0.063 | entinostat 0.09 | vorinostat -0.095 | citarinostat 0 | silmitasertib 0.042 | [5] -0.124 | [6] -0.021 | entospletinib 0.05

PER3 isoform 2 (UniProt P56645)
inactive: [1] 0.042 | [2] 0.007 | [3] 0.052 | [4] 0.037 | entinostat -0.037 | vorinostat -0.013 | citarinostat -0.066 | silmitasertib -0.025 | [5] -0.09 | [6] -0.059 | entospletinib 0.059

PDK1 (UniProt Q15118)
inactive: [1] 0.051 | [2] -0.04 | [3] 0.12 | [4] -0.016 | entinostat -0.04 | vorinostat -0.072 | citarinostat -0.062 | silmitasertib 0.031 | [5] -0.11 | [6] 0.025 | entospletinib 0.015

PALMD (UniProt Q9NP74)
inactive: [1] -0.169 | [2] 0.015 | [3] 0.068 | [4] 0.06 | entinostat -0.135 | vorinostat -0.021 | citarinostat 0.157 | silmitasertib 0.029 | [5] 0.019 | [6] 0.024 | entospletinib -0.019

Later entries:

PDCL (UniProt Q13371)
inactive: [1] -0.082 | [2] -0.066 | [3] -0.217 | [4] -0.016 | entinostat 0.028 | vorinostat 0.051 | citarinostat 0.122 | silmitasertib -0.009 | [5] 0.02 | [6] 0.044 | entospletinib -0.016

PEX14 (UniProt O75381)
inactive: [1] 0.048 | [2] -0.046 | [3] -0.008 | [4] 0.037 | entinostat 0.106 | vorinostat 0.013 | citarinostat 0.057 | silmitasertib -0.017 | [5] 0.123 | [6] 0.02 | entospletinib -0.064

PDHA1 isoform 4 (UniProt P08559)
inactive: [1] -0.005 | [2] 0.03 | [3] -0.068 | [4] 0.125 | entinostat -0.001 | vorinostat 0.059 | citarinostat 0 | silmitasertib -0.041 | [5] 0.096 | [6] -0.062 | entospletinib 0.104

PC (UniProt P11498)
inactive: [1] -0.025 | [2] 0.027 | [3] -0.084 | [4] 0.004 | entinostat -0.003 | vorinostat -0.044 | citarinostat 0.053 | silmitasertib -0.122 | [5] -0.099 | [6] 0.112

PDCL3 (UniProt Q9H2J4)
inactive: [1] -0.009 | [2] -0.034 | [3] -0.049 | [4] -0.014 | entinostat -0.023 | vorinostat 0.002 | citarinostat 0.037 | silmitasertib 0.014 | [5] -0.061 | [6] -0.004 | entospletinib -0.023

PDCD11 (UniProt Q14690)
inactive: [1] -0.024 | [2] -0.153 | [3] -0.272 | [4] -0.237 | entinostat 0.015 | vorinostat 0.049 | citarinostat 0 | silmitasertib 0.058 | [5] 0.05 | [6] -0.135 | entospletinib -0.06

PANK1 (UniProt Q8TE04)
inactive: [1] -0.065 | [2] -0.125 | [3] -0.06 | [4] -0.034 | entinostat 0.001 | vorinostat 0.039 | citarinostat 0.151 | silmitasertib -0.014 | [5] -0.034 | [6] -0.188 | entospletinib -0.12

PDIA6 isoform 2 (UniProt Q15084)
inactive: [1] -0.024 | [2] 0.011 | [3] -0.013 | [4] 0.019 | entinostat 0.006 | vorinostat -0.046 | citarinostat -0.001 | silmitasertib 0.016 | [5] -0.01 | [6] 0.064 | entospletinib -0.028

PEBP1 (UniProt P30086)
inactive: [1] 0.031 | [2] 0.027 | [3] 0.103 | [4] 0.027 | entinostat -0.028 | vorinostat -0.023 | citarinostat 0.026 | silmitasertib -0.04 | [5] 0.01 | [6] -0.008 | entospletinib 0.008

PCYT2 isoform 3 (UniProt Q99447)
inactive: [1] 0.018 | [2] 0 | [3] -0.079 | [4] 0.006 | entinostat -0.02 | vorinostat -0.009 | citarinostat 0.046 | silmitasertib -0.02 | [5] -0.042 | [6] 0.006 | entospletinib -0.039

PASK (UniProt Q96RG2)
inactive: [1] -0.005 | [2] 0.006 | [3] -0.023 | [4] -0.112 | entinostat 0.002 | vorinostat 0.071 | citarinostat -0.029 | silmitasertib 0.053 | [5] 0.02 | [6] 0.021 | entospletinib -0.026

PCSK9 (UniProt Q8NBP7)
inactive: [1] -0.029 | [2] 0.004 | [3] -0.001 | [4] 0.323 | entinostat -0.044 | vorinostat 0.006 | citarinostat 0.01 | silmitasertib 0.032 | [5] 0.029 | [6] -0.061 | entospletinib -0.137

PDIA5 (UniProt Q14554)
inactive: [1] 0.014 | [2] 0.052 | [3] -0.039 | [4] 0.065 | entinostat 0.007 | vorinostat -0.015 | citarinostat 0.039 | silmitasertib 0.021 | [5] 0.003 | [6] -0.061 | entospletinib -0.008

PCNP (UniProt Q8WW12)
inactive: [1] 0.022 | [2] 0 | [3] 0.048 | [4] 0.035 | entinostat -0.044 | vorinostat -0.05 | citarinostat -0.002 | silmitasertib 0.012 | [5] 0.003 | [6] -0.007 | entospletinib -0.01
